Assay [1] has as its target EphA10 fused with human Fc (human) (UniProt Q5JZY3). Nature of the assay: ELISA, EphA10-Fc coated, anti-human kappa HRP. Background: An ELISA detects its analyte on a solid surface through an enzyme-linked reagent.
The target of assay [2] is EphA10 (ELISA antigen, construct not stated) (UniProt Q5JZY3). Nature of the assay: ELISA, IgG form.
Assay [3] shares this target. Briefly: ELISA.
In assay [4] the target is EphA10-His monomer antigen protein (human) (UniProt Q5JZY3). Briefly: BLI (Octet R8), antibody on Protein A biosensor, EphA10-His monomer as analyte.

Protein sequences, listed by entry. Tags and fused reporters are not part of them. Residues count along the entry.
UniProt Q5JZY3, residues 34-565: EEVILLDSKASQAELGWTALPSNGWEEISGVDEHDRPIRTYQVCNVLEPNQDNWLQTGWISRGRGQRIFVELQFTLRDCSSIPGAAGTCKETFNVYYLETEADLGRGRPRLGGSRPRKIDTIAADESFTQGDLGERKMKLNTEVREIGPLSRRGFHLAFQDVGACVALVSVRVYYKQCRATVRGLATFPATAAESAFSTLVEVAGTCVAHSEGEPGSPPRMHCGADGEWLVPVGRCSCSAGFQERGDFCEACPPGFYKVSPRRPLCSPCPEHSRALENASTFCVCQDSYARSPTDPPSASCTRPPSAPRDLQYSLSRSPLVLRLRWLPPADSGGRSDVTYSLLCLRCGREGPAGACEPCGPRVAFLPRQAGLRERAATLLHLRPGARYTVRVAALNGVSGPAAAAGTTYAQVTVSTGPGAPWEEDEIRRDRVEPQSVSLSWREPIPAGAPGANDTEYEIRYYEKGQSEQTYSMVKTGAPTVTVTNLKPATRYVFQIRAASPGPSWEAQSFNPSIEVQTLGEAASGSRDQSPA

Residue numbers refer to the chain shown, from its start. Results are given in words; binding and its absence hold for the method and conditions named. Some results given as binding are weak or reduced against the parent protein; the word gives no strength.

B1: EphA10-specific humanized antibody 1-1 (antibody, V domains shown)
VH: QVTLKESGPTLVKPTQTLTLTCTFSGFSLSTSGMGVGWIRQPPGKALEWLAHIWWDDVKRYNPALKSRLTITKDTSKNQVVLTMTNMDPVDTATYYCARTSFPAGVDYWGQGTLVTVSS
VL: DVVMTQSPLSLPVTLGQPASISCRSSQSLQNSNGNTCLNWFQQRPGQSPRRLIYRVSNRFSGVPDRFSGSGSGTDFTLKISRVEAEDVGVYYCLQVTHVPFTFGQGTKLEIKR
notes: Expressed in Expi293F cells in IgG form; detected with anti-human kappa chain; also called IMGT 1-1
As for B1, the binding result in assay [1] is recorded as “binds”.

B2: antibody A.8 (antibody, V domains shown)
VH: B1 VH
VL: B1 VL with D1A, C37Y, V96G
Consider B2, for which the binding result in assay [2] is given as “binds”.

B3: antibody A.3 (antibody, V domains shown)
VH: B1 VH with S32R, W54R
VL: B1 VL with N58S
With B3, in assay [2], the binding result was “binds”.

B4: antibody 2-Y (antibody, V domains shown)
VH: B1 VH
VL: B1 VL with V2I, S7T, P12S, L15P, C37Y, F41Y, Q42L, R44K, R50Q, R51L
For the molecule B4, the binding entry in assay [2] is listed as “binds”.

B5: antibody 1-W (antibody, V domains shown)
VH: B1 VH
VL: B1 VL with C37W
As to B5, in assay [2], the binding entry is reported as “binds”.

B6: antibody 1-N (antibody, V domains shown)
VH: B1 VH
VL: B1 VL with C37N
On to B6, for which, in assay [2], the binding entry is reported as “binds”.

B7: antibody B.3 (antibody, V domains shown)
VH: B1 VH with G33S, W54R
VL: B1 VL with S48N, G71D, F76Y
Consider B7, for which, in assay [2], the binding result is reported as “binds”.

B8: antibody 1-R (antibody, V domains shown)
VH: B1 VH
VL: B1 VL with C37R
For B8, the binding result in assay [2] is given as “binds”.

B9: antibody 1-2-A (antibody, V domains shown)
VH: B1 VH
VL: B1 VL with V2I, S7T, P12S, L15P, C37A, F41Y, Q42L, R44K, R50Q, R51L
Regarding B9, the binding result in assay [3] was “binds”.

B10: antibody 2.3 (antibody, V domains shown)
VH: B1 VH
VL: DIVMTQTPLSLSVTPGQPASISCRSSQSLQNSNGNTRLNWYLQKPGQSPQLLIYRVSNRFSGVPDRFSGSGSGTDFTLKISRVEAEDVGVYYCLQETHVPFTFGQGTKLEIKR
In the case of B10, the binding entry in assay [2] is recorded as “binds”.

B11: antibody 1-1-A (antibody, V domains shown)
VH: B1 VH
VL: B1 VL with C37A
On to B11, for which the binding entry in assay [3] is “binds”.

B12: antibody 1-Y (antibody, V domains shown)
VH: B1 VH
VL: B1 VL with C37Y
For the molecule B12, the binding entry in assay [2] was “binds”.

B13: antibody 2.1 (antibody, V domains shown)
VH: B1 VH with L18I
VL: B10 VL with V3A, L9M, R37N, E96V
With B13, the binding result in assay [2] is given as “binds”.

B14: antibody 2-R (antibody, V domains shown)
VH: B1 VH
VL: B10 VL with E96V
In the case of B14, in assay [2], the binding result is listed as “binds”.

B15: antibody 2-N (antibody, V domains shown)
VH: B1 VH
VL: B10 VL with R37N, E96V
As for B15, the binding entry in assay [2] is recorded as “binds”.

B16: antibody A.7 (antibody, V domains shown)
VH: B1 VH
VL: B1 VL with C37Y, V96G
notes: also called A7 antibody
Regarding B16, the binding entry in assay [2] and in assay [4] was “binds” throughout.

B17: antibody 2-W (antibody, V domains shown)
VH: B1 VH
VL: B10 VL with R37W, E96V
notes: 1-2 with the free light chain CDR cysteine replaced by tryptophan; IgG form; also called 2W antibody; W2
Take B17: the binding result in assay [2] and in assay [4] was “binds” throughout.

B18: EphA10-specific humanized antibody 1-2 (antibody, V domains shown)
VH: B1 VH
VL: B10 VL with R37C, E96V
notes: Expressed in Expi293F cells in IgG form; detected with anti-human kappa chain; also called IMGT 1-2
As to B18, the binding entry in assay [1] is given as “binds”.
